Like-named read-outs stand apart in the source and are kept apart here. Results are given in words; binding and its absence hold for the method and conditions named. In cells and extracts the contact can be indirect. Some entries that bind do so weakly or less than the wild type.
How the values were obtained:
Test in all cases: co-IP; endogenous proteins; IP antibody (anti-ERK5, anti-Gαq or anti-β-arrestin) or IgG isotype on protein A/G magnetic beads, 1 h at room temperature with lysates of CAFs with sa-NC or sa-OXTR; beads washed five times with lysis buffer; immunoblot
[1] = target: ERK5 (human (endogenous in OSCC patient-derived CAFs)) (UniProt Q13164)
[2] = target: Gαq (human (endogenous in OSCC patient-derived CAFs)) (UniProt P50148)
[3] = target: ERK5 (human (endogenous in OSCC patient-derived CAFs)) (UniProt Q13164); remark: listed apart in the source
[4] = target: Gαq (human (endogenous in OSCC patient-derived CAFs)) (UniProt P50148); remark: listed apart in the source

By UniProt entry, the sequences of proteins in these tests, tags left out.
UniProt Q13164: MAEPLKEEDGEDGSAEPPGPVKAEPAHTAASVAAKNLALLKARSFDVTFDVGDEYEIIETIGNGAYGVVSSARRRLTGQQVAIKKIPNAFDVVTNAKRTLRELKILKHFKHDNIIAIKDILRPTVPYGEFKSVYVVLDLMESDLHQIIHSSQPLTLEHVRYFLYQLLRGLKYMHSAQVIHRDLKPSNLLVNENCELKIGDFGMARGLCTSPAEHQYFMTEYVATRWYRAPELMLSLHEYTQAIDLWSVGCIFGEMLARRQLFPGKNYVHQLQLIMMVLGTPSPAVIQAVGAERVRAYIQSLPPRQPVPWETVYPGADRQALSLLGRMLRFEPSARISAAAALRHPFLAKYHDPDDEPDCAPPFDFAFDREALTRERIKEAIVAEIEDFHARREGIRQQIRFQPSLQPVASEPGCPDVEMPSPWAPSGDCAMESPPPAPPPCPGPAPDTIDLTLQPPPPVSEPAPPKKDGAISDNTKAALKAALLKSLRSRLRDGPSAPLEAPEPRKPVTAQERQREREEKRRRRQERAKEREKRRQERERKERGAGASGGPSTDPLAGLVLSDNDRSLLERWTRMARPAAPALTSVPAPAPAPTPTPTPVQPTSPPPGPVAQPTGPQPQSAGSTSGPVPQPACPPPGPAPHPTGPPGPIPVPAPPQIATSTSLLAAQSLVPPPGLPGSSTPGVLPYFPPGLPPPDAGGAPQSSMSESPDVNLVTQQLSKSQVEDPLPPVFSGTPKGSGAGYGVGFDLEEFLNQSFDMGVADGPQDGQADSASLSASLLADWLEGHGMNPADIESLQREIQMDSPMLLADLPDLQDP
UniProt P50148: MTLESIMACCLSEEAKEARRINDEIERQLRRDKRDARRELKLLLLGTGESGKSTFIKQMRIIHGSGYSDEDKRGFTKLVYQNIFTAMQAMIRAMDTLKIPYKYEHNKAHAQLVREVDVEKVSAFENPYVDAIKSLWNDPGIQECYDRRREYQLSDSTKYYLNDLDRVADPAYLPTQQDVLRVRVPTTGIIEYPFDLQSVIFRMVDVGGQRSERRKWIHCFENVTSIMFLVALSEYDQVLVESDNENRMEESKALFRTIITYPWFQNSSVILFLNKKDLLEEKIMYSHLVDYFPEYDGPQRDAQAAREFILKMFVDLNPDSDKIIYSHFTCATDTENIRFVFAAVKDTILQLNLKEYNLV
UniProt P01100: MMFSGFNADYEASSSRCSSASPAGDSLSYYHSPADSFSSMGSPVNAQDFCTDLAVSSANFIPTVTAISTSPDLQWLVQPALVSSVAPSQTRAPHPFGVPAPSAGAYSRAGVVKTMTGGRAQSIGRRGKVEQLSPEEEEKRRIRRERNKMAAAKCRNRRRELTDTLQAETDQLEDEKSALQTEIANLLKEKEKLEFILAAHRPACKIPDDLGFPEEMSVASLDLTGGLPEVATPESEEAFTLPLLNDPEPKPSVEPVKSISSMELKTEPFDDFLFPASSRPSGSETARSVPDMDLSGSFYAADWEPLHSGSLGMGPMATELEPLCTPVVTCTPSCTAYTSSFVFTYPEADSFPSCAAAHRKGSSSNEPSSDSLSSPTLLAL
UniProt Q06413: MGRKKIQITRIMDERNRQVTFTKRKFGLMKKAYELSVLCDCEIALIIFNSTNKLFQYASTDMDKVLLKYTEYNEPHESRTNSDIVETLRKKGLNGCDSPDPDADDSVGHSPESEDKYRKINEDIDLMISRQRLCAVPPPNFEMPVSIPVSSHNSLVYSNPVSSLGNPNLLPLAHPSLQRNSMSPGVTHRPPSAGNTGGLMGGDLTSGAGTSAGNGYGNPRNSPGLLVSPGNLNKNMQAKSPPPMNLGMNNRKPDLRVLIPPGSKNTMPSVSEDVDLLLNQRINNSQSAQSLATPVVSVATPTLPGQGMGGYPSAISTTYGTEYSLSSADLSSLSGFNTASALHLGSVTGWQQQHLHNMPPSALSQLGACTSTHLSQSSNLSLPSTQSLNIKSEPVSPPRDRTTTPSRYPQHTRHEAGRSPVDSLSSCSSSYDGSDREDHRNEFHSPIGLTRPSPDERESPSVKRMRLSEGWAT
UniProt P01106: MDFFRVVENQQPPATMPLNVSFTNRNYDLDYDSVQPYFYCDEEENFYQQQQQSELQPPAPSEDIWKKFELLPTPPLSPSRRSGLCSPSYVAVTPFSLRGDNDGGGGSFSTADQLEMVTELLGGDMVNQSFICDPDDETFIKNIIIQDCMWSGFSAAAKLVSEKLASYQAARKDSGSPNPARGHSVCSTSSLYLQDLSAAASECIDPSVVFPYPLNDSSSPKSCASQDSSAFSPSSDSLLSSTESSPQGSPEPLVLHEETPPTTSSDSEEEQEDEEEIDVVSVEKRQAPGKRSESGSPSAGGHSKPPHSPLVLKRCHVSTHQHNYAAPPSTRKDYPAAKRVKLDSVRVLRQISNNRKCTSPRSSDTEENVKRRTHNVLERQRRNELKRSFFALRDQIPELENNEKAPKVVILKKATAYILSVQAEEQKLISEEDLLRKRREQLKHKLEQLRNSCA
UniProt P05412: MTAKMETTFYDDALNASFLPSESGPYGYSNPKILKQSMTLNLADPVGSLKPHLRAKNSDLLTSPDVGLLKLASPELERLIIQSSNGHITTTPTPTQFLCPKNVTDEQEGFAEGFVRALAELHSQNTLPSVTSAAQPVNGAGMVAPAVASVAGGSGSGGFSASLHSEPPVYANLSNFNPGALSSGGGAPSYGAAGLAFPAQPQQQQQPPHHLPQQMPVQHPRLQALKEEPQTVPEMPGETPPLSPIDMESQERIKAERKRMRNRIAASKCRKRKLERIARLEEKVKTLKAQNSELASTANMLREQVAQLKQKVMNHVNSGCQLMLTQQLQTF

Molecule | binding [1] | other results
c-fos (from UniProt P01100 1-380) | binds | –
ERK5 (from UniProt Q13164 1-816) (enzyme) | – | binding [2]: binds
MEF2C (from UniProt Q06413 1-473) | binds | –
c-myc (from UniProt P01106 1-454) | binds | –
c-jun (from UniProt P05412 1-331) | binds | –
CDC37 (protein, UniProt Q16543 1-378) MVDYSVWDHIEVSDDEDETHPNIDTASLFRWRHQARVERMEQFQKEKEELDRGCRECKRKVAECQRKLKELEVAEGGKAELERLQAEAQQLRKEERSWEQKLEEMRKKEKSMPWNVDTLSKDGFSKSMVNTKPEKTEEDSEEVREQKHKTFVEKYEKQIKHFGMLRRWDDSQKYLSDNVHLVCEETANYLVIWCIDLEVEEKCALMEQVAHQTIVMQFILELAKSLKVDPRACFRQFFTKIKTADRQYMEGFNDELEAFKERVRGRAKLRIEKAMKEYEEEERKKRLGPGGLDPVEVYESLPEELQKCFDVKDVQMLQDAISKMDPTDAKYHMQRCIDSGLWVPNSKASEAKEGEEAGPGDPLLEAVPKTGDEKDVSV | – | binding [3]: binds
protein kinase C (PKC)ζ (enzyme, UniProt Q05513 1-592) MPSRTGPKMEGSGGRVRLKAHYGGDIFITSVDAATTFEELCEEVRDMCRLHQQHPLTLKWVDSEGDPCTVSSQMELEEAFRLARQCRDEGLIIHVFPSTPEQPGLPCPGEDKSIYRRGARRWRKLYRANGHLFQAKRFNRRAYCGQCSERIWGLARQGYRCINCKLLVHKRCHGLVPLTCRKHMDSVMPSQEPPVDDKNEDADLPSEETDGIAYISSSRKHDSIKDDSEDLKPVIDGMDGIKISQGLGLQDFDLIRVIGRGSYAKVLLVRLKKNDQIYAMKVVKKELVHDDEDIDWVQTEKHVFEQASSNPFLVGLHSCFQTTSRLFLVIEYVNGGDLMFHMQRQRKLPEEHARFYAAEICIALNFLHERGIIYRDLKLDNVLLDADGHIKLTDYGMCKEGLGPGDTTSTFCGTPNYIAPEILRGEEYGFSVDWWALGVLMFEMMAGRSPFDIITDNPDMNTEDYLFQVILEKPIRIPRFLSVKASHVLKGFLNKDPKERLGCRPQTGFSDIKSHAFFRSIDWDLLEKKQALPPFQPQITDDYGLDNFDTQFTSEPVQLTPDDEDAIKRIDQSEFEGFEYINPLLLSTEESV | – | binding [4]: binds
MEK5 (enzyme, UniProt Q13163 1-448) MLWLALGPFPAMENQVLVIRIKIPNSGAVDWTVHSGPQLLFRDVLDVIGQVLPEATTTAFEYEDEDGDRITVRSDEEMKAMLSYYYSTVMEQQVNGQLIEPLQIFPRACKPPGERNIHGLKVNTRAGPSQHSSPAVSDSLPSNSLKKSSAELKKILANGQMNEQDIRYRDTLGHGNGGTVYKAYHVPSGKILAVKVILLDITLELQKQIMSELEILYKCDSSYIIGFYGAFFVENRISICTEFMDGGSLDVYRKMPEHVLGRIAVAVVKGLTYLWSLKILHRDVKPSNMLVNTRGQVKLCDFGVSTQLVNSIAKTYVGTNAYMAPERISGEQYGIHSDVWSLGISFMELALGRFPYPQIQKNQGSLMPLQLLQCIVDEDSPVLPVGEFSEPFVHFITQCMRKQPKERPAPEELMGHPFIVQFNDGNAAVVSMWVCRALEERRSQQGPP | – | binding [4]: binds
